This is one part of the list.
Legend:
Assay in all cases: log2 fold change, soluble protein after heating vs DMSO (PISA); higher = thermal stabilisation; K562 cells, 10 uM, 30 min; active = over 0.2 and 3.5 SD of the protein, either way, in both replicates (recomputed)
[1] = compound: CC[C@@H]1C(=O)N(C)c2cnc(Nc3ccc(C(=O)NC4CCN(C)CC4)cc3OC)nc2N1C1CCCC1
Outline: (§1)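 For each measurement, 10 μM compound was applied for 30 min to K562 cells at 2×10^6 cells/mL. Aliquots were heated for 3 min across 48°C-58°C, pooled, and extracted in PBS with 0.5% NP-40 at 4°C; the supernatant after 21,000xg for 90 min was soluble protein. This was quantified by TMTpro 16plex LC-MS/MS with channel sums equalised, and thermal stability was reported relative to control samples from duplicates, on a log2 fold-change scale.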

The chains behind the UniProt entries cited, without tags or fusion partners. Where a name states a change or a piece, a line headed by the entry shows the natural chain unless it says otherwise.
UniProt Q9NX24: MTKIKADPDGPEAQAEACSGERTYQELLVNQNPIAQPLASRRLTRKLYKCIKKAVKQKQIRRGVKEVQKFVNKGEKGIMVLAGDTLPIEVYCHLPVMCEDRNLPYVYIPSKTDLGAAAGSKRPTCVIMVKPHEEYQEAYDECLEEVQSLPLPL
UniProt Q5JPE7: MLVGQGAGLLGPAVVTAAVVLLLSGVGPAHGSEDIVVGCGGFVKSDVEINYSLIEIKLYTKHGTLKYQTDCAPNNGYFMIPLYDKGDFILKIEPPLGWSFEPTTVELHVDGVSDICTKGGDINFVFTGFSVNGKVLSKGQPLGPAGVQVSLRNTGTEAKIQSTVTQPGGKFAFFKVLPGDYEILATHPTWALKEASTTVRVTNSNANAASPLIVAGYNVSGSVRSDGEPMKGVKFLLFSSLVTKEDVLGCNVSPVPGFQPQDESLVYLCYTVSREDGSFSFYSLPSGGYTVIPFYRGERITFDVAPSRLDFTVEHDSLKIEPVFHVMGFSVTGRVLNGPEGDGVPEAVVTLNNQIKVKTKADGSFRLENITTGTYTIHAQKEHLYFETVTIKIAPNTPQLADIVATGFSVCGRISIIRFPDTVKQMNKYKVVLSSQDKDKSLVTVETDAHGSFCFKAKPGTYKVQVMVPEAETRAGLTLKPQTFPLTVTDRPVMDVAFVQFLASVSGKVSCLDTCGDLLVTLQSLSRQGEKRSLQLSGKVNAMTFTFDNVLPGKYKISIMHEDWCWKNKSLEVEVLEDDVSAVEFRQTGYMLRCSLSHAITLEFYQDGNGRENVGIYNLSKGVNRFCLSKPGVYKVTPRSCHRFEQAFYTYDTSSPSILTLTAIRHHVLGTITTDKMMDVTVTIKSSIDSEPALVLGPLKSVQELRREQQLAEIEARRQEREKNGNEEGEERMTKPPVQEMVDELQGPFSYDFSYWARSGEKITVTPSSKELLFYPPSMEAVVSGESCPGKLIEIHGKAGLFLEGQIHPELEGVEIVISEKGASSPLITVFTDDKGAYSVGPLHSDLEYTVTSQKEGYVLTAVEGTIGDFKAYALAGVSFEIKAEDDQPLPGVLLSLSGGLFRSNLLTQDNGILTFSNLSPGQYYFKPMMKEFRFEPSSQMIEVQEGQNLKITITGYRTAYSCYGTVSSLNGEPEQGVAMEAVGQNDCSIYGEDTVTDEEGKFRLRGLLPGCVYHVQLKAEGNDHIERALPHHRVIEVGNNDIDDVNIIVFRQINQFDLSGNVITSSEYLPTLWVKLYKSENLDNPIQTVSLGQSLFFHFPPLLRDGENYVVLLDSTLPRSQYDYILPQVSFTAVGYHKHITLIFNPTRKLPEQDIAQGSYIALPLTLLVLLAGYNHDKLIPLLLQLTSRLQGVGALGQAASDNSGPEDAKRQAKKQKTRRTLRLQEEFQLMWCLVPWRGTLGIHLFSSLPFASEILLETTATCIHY
UniProt O60524: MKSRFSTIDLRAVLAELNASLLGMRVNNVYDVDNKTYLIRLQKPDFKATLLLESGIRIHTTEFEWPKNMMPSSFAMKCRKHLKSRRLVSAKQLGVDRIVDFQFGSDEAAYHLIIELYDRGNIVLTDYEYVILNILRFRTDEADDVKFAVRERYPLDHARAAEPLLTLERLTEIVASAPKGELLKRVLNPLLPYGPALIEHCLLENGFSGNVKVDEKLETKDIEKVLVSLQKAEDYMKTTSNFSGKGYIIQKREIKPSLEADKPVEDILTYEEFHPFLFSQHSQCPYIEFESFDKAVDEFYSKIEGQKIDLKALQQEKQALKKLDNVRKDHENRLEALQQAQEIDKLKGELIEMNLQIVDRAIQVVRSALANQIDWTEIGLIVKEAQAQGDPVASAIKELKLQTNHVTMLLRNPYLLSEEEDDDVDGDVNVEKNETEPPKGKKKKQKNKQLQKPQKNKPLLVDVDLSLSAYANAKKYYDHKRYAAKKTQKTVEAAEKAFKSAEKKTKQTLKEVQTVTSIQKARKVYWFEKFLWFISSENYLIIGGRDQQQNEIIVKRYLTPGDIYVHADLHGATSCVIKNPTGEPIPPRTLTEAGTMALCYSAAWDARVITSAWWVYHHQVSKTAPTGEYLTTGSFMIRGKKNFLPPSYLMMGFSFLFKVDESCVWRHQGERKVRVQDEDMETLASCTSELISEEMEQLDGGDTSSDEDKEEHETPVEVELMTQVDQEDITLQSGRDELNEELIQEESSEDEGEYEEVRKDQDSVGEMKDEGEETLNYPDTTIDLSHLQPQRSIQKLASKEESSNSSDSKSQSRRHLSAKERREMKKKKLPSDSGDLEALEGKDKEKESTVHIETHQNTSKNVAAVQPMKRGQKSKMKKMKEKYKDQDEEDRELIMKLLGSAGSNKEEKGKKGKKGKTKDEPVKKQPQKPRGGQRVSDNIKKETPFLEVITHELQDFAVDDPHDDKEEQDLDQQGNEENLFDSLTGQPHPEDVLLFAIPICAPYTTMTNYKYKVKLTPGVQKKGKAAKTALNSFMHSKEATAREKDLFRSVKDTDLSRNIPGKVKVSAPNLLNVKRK
UniProt Q13232: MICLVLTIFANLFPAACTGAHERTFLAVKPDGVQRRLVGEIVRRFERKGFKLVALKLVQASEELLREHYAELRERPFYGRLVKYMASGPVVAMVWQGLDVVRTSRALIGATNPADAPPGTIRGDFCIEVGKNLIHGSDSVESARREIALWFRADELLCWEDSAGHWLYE
UniProt Q9Y697: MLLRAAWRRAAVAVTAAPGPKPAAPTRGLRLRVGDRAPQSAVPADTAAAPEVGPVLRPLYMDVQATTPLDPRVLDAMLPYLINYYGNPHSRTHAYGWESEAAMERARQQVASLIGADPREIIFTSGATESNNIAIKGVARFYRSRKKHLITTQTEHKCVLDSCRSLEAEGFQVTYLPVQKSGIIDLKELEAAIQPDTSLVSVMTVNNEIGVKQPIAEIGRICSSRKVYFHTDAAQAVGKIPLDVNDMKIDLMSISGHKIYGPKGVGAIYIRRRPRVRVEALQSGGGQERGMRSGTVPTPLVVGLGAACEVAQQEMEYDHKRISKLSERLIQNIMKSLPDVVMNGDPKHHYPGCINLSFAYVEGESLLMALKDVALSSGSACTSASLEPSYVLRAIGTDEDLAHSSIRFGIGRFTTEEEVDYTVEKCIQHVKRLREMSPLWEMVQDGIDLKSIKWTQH
UniProt Q9BXD5: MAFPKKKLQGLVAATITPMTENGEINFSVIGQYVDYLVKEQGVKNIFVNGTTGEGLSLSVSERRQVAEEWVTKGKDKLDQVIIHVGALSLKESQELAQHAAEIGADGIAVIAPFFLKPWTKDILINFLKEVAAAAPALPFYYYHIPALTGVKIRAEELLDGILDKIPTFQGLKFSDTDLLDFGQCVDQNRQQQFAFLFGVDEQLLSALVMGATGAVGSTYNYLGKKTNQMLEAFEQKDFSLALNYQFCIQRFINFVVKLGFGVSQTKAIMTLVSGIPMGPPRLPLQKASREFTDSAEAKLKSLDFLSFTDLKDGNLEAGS
UniProt O75414: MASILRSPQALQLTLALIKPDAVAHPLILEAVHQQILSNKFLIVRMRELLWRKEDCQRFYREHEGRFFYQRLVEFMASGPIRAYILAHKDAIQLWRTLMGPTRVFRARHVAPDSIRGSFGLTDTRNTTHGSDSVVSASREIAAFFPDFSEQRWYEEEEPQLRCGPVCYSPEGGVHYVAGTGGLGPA
UniProt P21359: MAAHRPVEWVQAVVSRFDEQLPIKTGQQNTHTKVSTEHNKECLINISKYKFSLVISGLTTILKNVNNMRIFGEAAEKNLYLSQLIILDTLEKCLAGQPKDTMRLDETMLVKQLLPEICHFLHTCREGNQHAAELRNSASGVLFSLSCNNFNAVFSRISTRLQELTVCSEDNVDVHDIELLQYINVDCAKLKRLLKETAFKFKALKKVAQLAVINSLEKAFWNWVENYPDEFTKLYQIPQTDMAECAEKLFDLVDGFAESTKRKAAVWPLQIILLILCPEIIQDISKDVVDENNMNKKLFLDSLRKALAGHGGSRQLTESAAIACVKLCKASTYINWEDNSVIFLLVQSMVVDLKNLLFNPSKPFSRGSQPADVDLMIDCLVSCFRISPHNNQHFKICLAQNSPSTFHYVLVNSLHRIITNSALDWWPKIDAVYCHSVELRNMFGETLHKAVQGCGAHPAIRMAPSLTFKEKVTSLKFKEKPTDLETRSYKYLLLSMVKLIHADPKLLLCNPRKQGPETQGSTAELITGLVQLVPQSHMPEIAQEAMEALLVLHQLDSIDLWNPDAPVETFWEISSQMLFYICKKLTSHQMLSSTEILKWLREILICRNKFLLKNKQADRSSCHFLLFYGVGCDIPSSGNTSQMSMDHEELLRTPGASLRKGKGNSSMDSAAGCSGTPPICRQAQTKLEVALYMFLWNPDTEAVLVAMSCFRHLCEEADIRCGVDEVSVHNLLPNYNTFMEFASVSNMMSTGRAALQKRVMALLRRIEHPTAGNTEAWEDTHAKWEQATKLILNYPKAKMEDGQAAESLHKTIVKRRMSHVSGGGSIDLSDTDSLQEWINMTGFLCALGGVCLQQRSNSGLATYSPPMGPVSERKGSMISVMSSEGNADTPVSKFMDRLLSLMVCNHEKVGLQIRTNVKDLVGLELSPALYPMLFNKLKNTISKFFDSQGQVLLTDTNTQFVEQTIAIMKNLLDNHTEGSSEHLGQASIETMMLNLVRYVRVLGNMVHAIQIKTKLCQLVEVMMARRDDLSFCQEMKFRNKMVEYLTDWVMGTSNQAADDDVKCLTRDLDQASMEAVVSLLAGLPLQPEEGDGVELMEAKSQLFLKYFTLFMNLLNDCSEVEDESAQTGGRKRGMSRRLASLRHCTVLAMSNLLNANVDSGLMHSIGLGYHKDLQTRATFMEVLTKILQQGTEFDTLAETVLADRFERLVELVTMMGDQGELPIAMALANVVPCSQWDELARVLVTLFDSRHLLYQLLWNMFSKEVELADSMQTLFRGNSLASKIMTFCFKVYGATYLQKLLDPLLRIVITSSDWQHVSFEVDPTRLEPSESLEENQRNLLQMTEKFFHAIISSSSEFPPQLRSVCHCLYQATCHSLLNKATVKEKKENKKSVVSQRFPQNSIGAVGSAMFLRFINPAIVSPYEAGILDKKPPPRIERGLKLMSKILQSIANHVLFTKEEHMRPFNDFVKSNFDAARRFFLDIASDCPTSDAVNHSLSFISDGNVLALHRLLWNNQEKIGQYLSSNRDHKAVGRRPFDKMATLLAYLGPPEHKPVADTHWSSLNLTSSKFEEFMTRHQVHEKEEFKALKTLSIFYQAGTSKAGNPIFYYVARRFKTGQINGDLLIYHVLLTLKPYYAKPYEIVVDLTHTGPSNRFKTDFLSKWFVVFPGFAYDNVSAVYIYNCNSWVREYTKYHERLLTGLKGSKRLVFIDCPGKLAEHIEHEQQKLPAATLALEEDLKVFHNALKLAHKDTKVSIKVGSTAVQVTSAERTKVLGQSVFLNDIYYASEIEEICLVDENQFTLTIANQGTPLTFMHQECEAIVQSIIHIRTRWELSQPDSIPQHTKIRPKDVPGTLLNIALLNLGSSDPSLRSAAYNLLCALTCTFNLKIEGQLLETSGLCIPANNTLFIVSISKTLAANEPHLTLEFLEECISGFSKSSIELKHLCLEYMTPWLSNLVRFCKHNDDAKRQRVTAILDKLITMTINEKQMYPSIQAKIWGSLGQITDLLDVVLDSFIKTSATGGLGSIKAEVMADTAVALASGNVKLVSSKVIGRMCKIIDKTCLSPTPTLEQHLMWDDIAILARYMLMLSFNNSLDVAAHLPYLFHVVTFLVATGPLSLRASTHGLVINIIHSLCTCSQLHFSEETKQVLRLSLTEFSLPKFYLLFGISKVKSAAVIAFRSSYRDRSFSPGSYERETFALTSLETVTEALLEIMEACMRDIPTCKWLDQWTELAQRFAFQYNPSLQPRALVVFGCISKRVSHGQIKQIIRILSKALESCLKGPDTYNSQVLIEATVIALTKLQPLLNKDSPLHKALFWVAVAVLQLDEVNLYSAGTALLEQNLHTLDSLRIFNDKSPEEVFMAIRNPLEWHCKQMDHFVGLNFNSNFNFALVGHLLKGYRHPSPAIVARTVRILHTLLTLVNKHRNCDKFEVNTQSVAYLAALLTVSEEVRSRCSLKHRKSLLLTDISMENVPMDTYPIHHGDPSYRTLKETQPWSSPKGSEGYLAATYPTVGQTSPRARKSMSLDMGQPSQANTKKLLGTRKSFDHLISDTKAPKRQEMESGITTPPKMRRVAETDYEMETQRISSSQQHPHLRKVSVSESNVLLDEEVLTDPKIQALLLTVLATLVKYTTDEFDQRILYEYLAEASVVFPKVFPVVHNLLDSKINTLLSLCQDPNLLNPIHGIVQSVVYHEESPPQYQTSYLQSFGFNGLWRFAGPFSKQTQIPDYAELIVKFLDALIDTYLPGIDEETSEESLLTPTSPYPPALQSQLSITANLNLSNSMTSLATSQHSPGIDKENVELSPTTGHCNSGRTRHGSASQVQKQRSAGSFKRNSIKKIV

volasertib = compound: CC[C@@H]1C(=O)N(C)c2cnc(Nc3ccc(C(=O)N[C@H]4CC[C@H](N5CCN(CC6CC6)CC5)CC4)cc3OC)nc2N1C(C)C [volasertib]
Outline: as §1

[2] = compound: CC[C@H](C)N1C=C(C2=C(C=C(C=C21)C3=CN=C(C=C3)N4CCNCC4)C(=O)NCC5=C(C=C(NC5=O)C)C)C
Outline: as §1

epoxomicin = compound: CC[C@H](C)[C@@H](C(=O)N[C@@H]([C@@H](C)O)C(=O)N[C@@H](CC(C)C)C(=O)[C@]1(CO1)C)NC(=O)[C@H]([C@@H](C)CC)N(C)C(=O)C [epoxomicin]
Outline: as §1

[3] = compound: CCn1c(C(=O)N(C2CC2)C2CC2)cc2c3c(ncn3C)c(Nc3cc(C)n(C)n3)nc21
Outline: as §1

[4] = compound: CCn1cc(-c2ccnc3[nH]c(-c4cccc(CN(C)C)c4)cc23)c(-c2ccc(NC(=O)N(C)C)cc2)n1
Outline: as §1

[5] = compound: CN(C)CC(=O)Nc1ccc2[nH]c(=O)c3ccccc3c2c1
Outline: as §1

rosiglitazone = compound: CN(CCOC1=CC=C(C=C1)C[C@H]2C(=O)NC(=O)S2)C3=CC=CC=N3 (racemic) [rosiglitazone]
Outline: as §1

[6] = compound: CN1C2=C(C3=C1C(=O)N(N=C3)CC4=CC(=CC=C4)N)SC(=C2)S(=O)C
Outline: as §1

[7] = compound: CN1CCC(CNc2ccc3ncc(-c4cccc(OC(F)(F)F)c4)n3n2)CC1
Outline: as §1

Measured: log2 fold change

NOC2L (UniProt Q9Y3T9)
inactive: [1] 0.028 | volasertib -0.309 | [2] 0.11 | epoxomicin 0.151 | [3] -0.084 | [4] 0.082 | [5] 0.06 | rosiglitazone 0.006 | [6] 0.032 | [7] 0.04

NHP2 (UniProt Q9NX24)
inactive: [1] 0.213 | volasertib 0.117 | [2] -0.021 | epoxomicin -0.131 | [3] 0.022 | [4] 0.079 | [5] -0.076 | rosiglitazone -0.066 | [6] 0.158 | [7] 0.137

NIT2 (UniProt Q9NQR4)
inactive: [1] 0.01 | volasertib 0.043 | [2] -0.015 | epoxomicin 0.007 | [3] -0.002 | [4] -0.037 | [5] 0.005 | rosiglitazone 0.014 | [6] -0.087 | [7] -0.036

NIPSNAP3A (UniProt Q9UFN0)
inactive: [1] 0.034 | volasertib 0.01 | [2] -0.003 | epoxomicin 0.013 | [3] 0.013 | [4] 0.062 | [5] -0.041 | rosiglitazone -0.055 | [6] -0.032 | [7] 0.077

Taken from the listing (2 entries):
NOC2L (UniProt Q9Y3T9)
inactive: [1] 0.028 | volasertib -0.309 | [2] 0.11 | epoxomicin 0.151 | [3] -0.084 | [4] 0.082 | [5] 0.06 | rosiglitazone 0.006 | [6] 0.032 | [7] 0.04

NHP2 (UniProt Q9NX24)
inactive: [1] 0.213 | volasertib 0.117 | [2] -0.021 | epoxomicin -0.131 | [3] 0.022 | [4] 0.079 | [5] -0.076 | rosiglitazone -0.066 | [6] 0.158 | [7] 0.137

The results go on:

NOMO2 (UniProt Q5JPE7)
inactive: [1] 0.002 | volasertib -0.073 | [2] 0.011 | epoxomicin -0.009 | [3] 0 | [4] 0.011 | [5] 0.004 | rosiglitazone 0.001 | [6] -0.003 | [7] 0.057

NRAS (UniProt P01111)
inactive: [1] 0.055 | volasertib 0.071 | [2] -0.002 | epoxomicin -0.035 | [3] 0.026 | [4] 0 | [5] -0.014 | rosiglitazone 0.001 | [6] -0.1 | [7] 0.091

NONO (UniProt Q15233)
inactive: [1] -0.022 | volasertib -0.224 | [2] 0.166 | epoxomicin -0.075 | [3] -0.138 | [4] 0.015 | [5] 0.054 | rosiglitazone -0.018 | [6] 0.284 | [7] 0.06

NEMF (UniProt O60524)
inactive: [1] 0.228 | volasertib 0.261 | [2] 0.05 | epoxomicin -0.338 | [3] -0.073 | [4] 0.129 | [5] -0.084 | rosiglitazone -0.089 | [6] 0.344 | [7] 0.15

NFYA (UniProt P23511)
inactive: [1] 0.009 | volasertib 0.055 | [2] 0.023 | epoxomicin 0.16 | [3] 0.049 | [4] -0.027 | [5] -0.019 | rosiglitazone -0.055 | [6] -0.018 | [7] -0.02

NRBF2 (UniProt Q96F24)
inactive: [1] 0.012 | volasertib -0.08 | [2] 0.045 | epoxomicin 0.016 | [3] 0.019 | [4] -0.033 | [5] 0.015 | rosiglitazone -0.009 | [6] -0.008 | [7] 0.005

NMI (UniProt Q13287)
inactive: [1] 0.029 | volasertib 0.012 | [2] -0.027 | epoxomicin 0.048 | [3] 0.004 | [4] -0.013 | [5] -0.022 | rosiglitazone 0.032 | [6] -0.045 | [7] -0.082

NPC2 (UniProt P61916)
inactive: [1] -0.002 | volasertib -0.073 | [2] 0 | epoxomicin 0.023 | [3] 0.03 | [4] -0.051 | [5] -0.008 | rosiglitazone -0.043 | [6] -0.037 | [7] 0.025

NME3 (UniProt Q13232)
inactive: [1] 0.043 | volasertib 0.071 | [2] -0.063 | epoxomicin 0.043 | [3] 0.012 | [4] -0.019 | [5] -0.004 | rosiglitazone 0.007 | [6] -0.04 | [7] 0.048

NIFK (UniProt Q9BYG3)
inactive: [1] 0.077 | volasertib 0.15 | [2] -0.009 | epoxomicin -0.242 | [3] 0.01 | [4] 0.181 | [5] -0.112 | rosiglitazone -0.136 | [6] 0.222 | [7] 0.226

NPM1 (UniProt P06748)
inactive: [1] 0.126 | volasertib 0.279 | [2] 0.015 | epoxomicin -0.304 | [3] 0.057 | [4] 0.188 | [5] -0.057 | rosiglitazone -0.155 | [6] 0.251 | [7] 0.351

NLE1 (UniProt Q9NVX2)
inactive: [1] -0.018 | volasertib -0.056 | [2] -0.029 | epoxomicin 0.016 | [3] 0.018 | [4] -0.027 | [5] 0.014 | rosiglitazone 0.028 | [6] -0.096 | [7] 0.04

NGRN (UniProt Q9NPE2)
inactive: [1] 0.109 | volasertib 0.016 | [2] 0.027 | epoxomicin -0.075 | [3] 0.018 | [4] -0.044 | [5] -0.09 | rosiglitazone 0.009 | [6] 0.066 | [7] -0.009

NFS1 (UniProt Q9Y697)
inactive: [1] -0.004 | volasertib -0.067 | [2] 0.023 | epoxomicin 0 | [3] -0.022 | [4] -0.045 | [5] 0.009 | rosiglitazone 0.022 | [6] -0.113 | [7] 0.035

NPTN (UniProt Q9Y639)
inactive: [1] 0.038 | volasertib 0.084 | [2] -0.043 | epoxomicin -0.019 | [3] 0.005 | [4] -0.019 | [5] -0.034 | rosiglitazone 0.021 | [6] -0.084 | [7] 0.118

NSMAF (UniProt Q92636)
inactive: [1] -0.052 | volasertib -0.128 | [2] 0.011 | epoxomicin 0.056 | [3] 0.02 | [4] -0.068 | [5] 0.01 | rosiglitazone -0.001 | [6] -0.078 | [7] -0.052

NOMO1 (UniProt Q15155)
inactive: [1] -0.054 | volasertib -0.166 | [2] 0.002 | epoxomicin 0.053 | [3] -0.099 | [4] 0.024 | [5] -0.088 | rosiglitazone -0.006 | [6] 0.182 | [7] 0.001

NIPSNAP1 (UniProt Q9BPW8)
inactive: [1] -0.027 | volasertib -0.025 | [2] -0.009 | epoxomicin -0.024 | [3] -0.031 | [4] -0.067 | [5] 0.083 | rosiglitazone -0.019 | [6] -0.094 | [7] -0.054

NR2F6 (UniProt P10588)
inactive: [1] 0.123 | volasertib -0.011 | [2] 0.141 | epoxomicin 0.005 | [3] 0.073 | [4] -0.026 | [5] 0.04 | rosiglitazone 0.044 | [6] 0.02 | [7] 0.035

NEK7 (UniProt Q8TDX7)
inactive: [1] -0.05 | volasertib -0.055 | [2] 0.086 | epoxomicin 0.046 | [3] -0.025 | [4] -0.027 | [5] -0.054 | rosiglitazone 0.034 | [6] -0.028 | [7] -0.062

NPL (UniProt Q9BXD5)
inactive: [1] 0.131 | volasertib -0.291 | [2] -0.023 | epoxomicin -0.197 | [3] -0.057 | [4] 0.057 | [5] -0.032 | rosiglitazone 0.024 | [6] -0.038 | [7] -0.098

NFIC (UniProt P08651)
inactive: [1] 0.16 | volasertib 0.173 | [2] -0.037 | epoxomicin 0.111 | [3] 0.027 | [4] 0.005 | [5] -0.115 | rosiglitazone -0.015 | [6] -0.025 | [7] 0.04

NME2 isoform 2 (UniProt P22392)
inactive: [1] 0.047 | volasertib 0.087 | [2] -0.027 | epoxomicin 0.006 | [3] 0.025 | [4] 0.011 | [5] -0.023 | rosiglitazone 0.011 | [6] -0.057 | [7] -0.032

NFXL1 (UniProt Q6ZNB6)
inactive: [1] -0.011 | volasertib -0.131 | [2] 0.012 | epoxomicin 0 | [3] -0.021 | [4] -0.003 | [5] 0 | rosiglitazone -0.005 | [6] -0.052 | [7] -0.006

NME6 (UniProt O75414)
inactive: [1] 0.07 | volasertib -0.034 | [2] -0.014 | epoxomicin -0.036 | [3] -0.031 | [4] -0.073 | [5] -0.006 | rosiglitazone -0.011 | [6] -0.006 | [7] 0.045

NF1 (UniProt P21359)
inactive: [1] 0.115 | volasertib -0.041 | [2] -0.025 | epoxomicin -0.279 | [3] -0.043 | [4] 0.142 | [5] 0.02 | rosiglitazone 0.106 | [6] -0.005 | [7] -0.223

From the supplement of paper PMC10849652
